Test results reported in paper PMC8971431.
No constants are given. Whether binding was seen depends on the method and setting. In cells and extracts the contact can be indirect. A result given as binding can be weak or reduced; the word gives no strength. For part of these data: Tags and fused reporters may be left off the sequences shown.

Key:
[1] = molecular target: T1, Myc-tagged Tak1 (transforming growth factor-β-associated kinase 1, Drosophila) (Drosophila) (UniProt Q9V3Q6); assay: co-IP; 293 T cells transfected with tagged constructs (Lipofectamine 2000), collected 48 h after transfection; IP with anti-Fg or anti-Myc, immunoblot
T1 sequence: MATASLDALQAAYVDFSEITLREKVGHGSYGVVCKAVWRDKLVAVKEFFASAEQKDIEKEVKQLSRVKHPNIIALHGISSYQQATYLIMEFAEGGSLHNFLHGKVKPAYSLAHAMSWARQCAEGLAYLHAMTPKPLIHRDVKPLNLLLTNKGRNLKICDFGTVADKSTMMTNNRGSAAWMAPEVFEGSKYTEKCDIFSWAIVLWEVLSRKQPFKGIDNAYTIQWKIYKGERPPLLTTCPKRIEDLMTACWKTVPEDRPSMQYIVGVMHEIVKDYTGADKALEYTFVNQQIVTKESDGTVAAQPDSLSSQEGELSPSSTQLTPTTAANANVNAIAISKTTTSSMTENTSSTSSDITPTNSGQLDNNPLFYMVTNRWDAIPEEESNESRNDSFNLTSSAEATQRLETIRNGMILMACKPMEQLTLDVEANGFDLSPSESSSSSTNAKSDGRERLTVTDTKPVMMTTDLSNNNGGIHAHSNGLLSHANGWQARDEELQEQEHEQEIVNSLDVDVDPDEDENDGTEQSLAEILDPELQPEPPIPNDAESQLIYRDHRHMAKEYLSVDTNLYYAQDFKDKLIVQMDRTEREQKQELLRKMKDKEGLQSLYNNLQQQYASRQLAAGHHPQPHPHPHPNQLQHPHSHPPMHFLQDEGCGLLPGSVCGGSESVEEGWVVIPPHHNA

[2] = molecular target: T2, endogenous Tak1 (Drosophila) (Drosophila (endogenous in third instar larvae)) (UniProt Q9V3Q6); assay: co-IP; endogenous proteins, third instar larval protein samples; home-made mouse anti-Tak1 and anti-Usp8 antibodies
T2 sequence: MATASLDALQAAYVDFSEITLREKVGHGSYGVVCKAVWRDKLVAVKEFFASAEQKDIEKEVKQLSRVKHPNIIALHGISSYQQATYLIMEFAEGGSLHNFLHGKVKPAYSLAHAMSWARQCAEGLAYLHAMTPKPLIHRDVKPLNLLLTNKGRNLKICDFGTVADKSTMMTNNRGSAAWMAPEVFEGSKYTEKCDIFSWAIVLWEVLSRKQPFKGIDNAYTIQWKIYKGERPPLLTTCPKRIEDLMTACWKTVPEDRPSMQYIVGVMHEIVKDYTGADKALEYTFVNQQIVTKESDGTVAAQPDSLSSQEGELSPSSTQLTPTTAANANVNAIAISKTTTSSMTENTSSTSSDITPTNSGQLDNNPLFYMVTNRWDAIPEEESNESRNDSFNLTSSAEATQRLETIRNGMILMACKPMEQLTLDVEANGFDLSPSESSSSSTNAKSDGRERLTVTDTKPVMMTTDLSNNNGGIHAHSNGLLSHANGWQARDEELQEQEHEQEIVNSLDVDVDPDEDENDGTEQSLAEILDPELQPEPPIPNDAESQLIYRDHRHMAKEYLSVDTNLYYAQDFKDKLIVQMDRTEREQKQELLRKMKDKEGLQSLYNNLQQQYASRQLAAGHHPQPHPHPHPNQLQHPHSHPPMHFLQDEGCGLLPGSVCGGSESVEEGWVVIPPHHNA

[3] = molecular target: Fg-tagged Usp8 (ubiquitin-specific protease 8, Drosophila) (Drosophila); assay: co-IP; 293 T cells transfected with tagged constructs (Lipofectamine 2000), collected 48 h after transfection; IP with anti-Fg or anti-Myc, immunoblot

## Fg-tagged Usp8 (ubiquitin-specific protease 8, Drosophila) (enzyme)
[1]
  binding: binds

## endogenous Usp8 (Drosophila) (enzyme)
[2]
  binding: binds

B1: Myc-tagged Tak1 (transforming growth factor-β-associated kinase 1, Drosophila) (enzyme, UniProt Q9V3Q6 1-678)
chain: MATASLDALQAAYVDFSEITLREKVGHGSYGVVCKAVWRDKLVAVKEFFASAEQKDIEKEVKQLSRVKHPNIIALHGISSYQQATYLIMEFAEGGSLHNFLHGKVKPAYSLAHAMSWARQCAEGLAYLHAMTPKPLIHRDVKPLNLLLTNKGRNLKICDFGTVADKSTMMTNNRGSAAWMAPEVFEGSKYTEKCDIFSWAIVLWEVLSRKQPFKGIDNAYTIQWKIYKGERPPLLTTCPKRIEDLMTACWKTVPEDRPSMQYIVGVMHEIVKDYTGADKALEYTFVNQQIVTKESDGTVAAQPDSLSSQEGELSPSSTQLTPTTAANANVNAIAISKTTTSSMTENTSSTSSDITPTNSGQLDNNPLFYMVTNRWDAIPEEESNESRNDSFNLTSSAEATQRLETIRNGMILMACKPMEQLTLDVEANGFDLSPSESSSSSTNAKSDGRERLTVTDTKPVMMTTDLSNNNGGIHAHSNGLLSHANGWQARDEELQEQEHEQEIVNSLDVDVDPDEDENDGTEQSLAEILDPELQPEPPIPNDAESQLIYRDHRHMAKEYLSVDTNLYYAQDFKDKLIVQMDRTEREQKQELLRKMKDKEGLQSLYNNLQQQYASRQLAAGHHPQPHPHPHPNQLQHPHSHPPMHFLQDEGCGLLPGSVCGGSESVEEGWVVIPPHHNA
[3]
  binding: binds
